Laboratory results taken from the supplement of paper PMC10849652.
The list shows a part of the results.

Amino acid sequences for entries named in this document (tags omitted). A change or cut given only in a name is not applied to a line headed by its entry.
UniProt O14880: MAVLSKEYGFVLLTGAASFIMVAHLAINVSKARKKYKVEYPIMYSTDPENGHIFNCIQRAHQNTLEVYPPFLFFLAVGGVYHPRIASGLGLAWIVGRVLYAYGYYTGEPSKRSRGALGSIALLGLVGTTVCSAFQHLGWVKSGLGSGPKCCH
UniProt Q7L9L4: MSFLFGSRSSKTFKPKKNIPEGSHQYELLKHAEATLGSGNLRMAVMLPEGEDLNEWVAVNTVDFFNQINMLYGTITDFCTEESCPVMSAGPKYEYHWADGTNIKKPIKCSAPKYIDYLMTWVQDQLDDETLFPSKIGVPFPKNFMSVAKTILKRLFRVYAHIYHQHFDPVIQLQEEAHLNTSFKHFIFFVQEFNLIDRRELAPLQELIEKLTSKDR
UniProt Q86VX9: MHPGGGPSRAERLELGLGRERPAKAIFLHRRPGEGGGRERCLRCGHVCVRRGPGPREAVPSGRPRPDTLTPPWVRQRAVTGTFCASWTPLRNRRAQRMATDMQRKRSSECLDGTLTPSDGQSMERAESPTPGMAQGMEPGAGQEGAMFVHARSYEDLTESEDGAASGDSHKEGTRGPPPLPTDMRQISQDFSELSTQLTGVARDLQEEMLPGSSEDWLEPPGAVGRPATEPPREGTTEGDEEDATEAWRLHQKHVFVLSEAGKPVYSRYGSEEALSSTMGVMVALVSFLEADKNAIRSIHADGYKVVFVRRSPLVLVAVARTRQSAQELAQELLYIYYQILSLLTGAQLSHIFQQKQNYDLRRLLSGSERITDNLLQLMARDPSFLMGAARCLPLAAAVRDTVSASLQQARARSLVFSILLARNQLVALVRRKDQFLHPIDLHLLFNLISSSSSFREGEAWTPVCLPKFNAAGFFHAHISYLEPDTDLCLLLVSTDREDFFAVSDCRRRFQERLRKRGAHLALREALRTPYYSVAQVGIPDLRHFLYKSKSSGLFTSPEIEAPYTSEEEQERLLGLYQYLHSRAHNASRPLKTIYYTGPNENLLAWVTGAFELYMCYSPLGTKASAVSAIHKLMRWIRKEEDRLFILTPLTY
UniProt Q9BRT3: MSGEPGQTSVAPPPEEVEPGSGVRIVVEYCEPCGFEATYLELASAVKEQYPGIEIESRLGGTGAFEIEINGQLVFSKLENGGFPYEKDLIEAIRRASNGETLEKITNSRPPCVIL
UniProt Q9Y3A3: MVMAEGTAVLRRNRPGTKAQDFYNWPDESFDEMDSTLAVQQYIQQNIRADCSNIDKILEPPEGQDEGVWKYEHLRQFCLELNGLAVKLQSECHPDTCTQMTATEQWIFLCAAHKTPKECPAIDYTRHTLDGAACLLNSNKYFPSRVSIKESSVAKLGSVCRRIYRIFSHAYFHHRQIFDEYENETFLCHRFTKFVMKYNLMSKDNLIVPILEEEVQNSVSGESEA
UniProt Q00013: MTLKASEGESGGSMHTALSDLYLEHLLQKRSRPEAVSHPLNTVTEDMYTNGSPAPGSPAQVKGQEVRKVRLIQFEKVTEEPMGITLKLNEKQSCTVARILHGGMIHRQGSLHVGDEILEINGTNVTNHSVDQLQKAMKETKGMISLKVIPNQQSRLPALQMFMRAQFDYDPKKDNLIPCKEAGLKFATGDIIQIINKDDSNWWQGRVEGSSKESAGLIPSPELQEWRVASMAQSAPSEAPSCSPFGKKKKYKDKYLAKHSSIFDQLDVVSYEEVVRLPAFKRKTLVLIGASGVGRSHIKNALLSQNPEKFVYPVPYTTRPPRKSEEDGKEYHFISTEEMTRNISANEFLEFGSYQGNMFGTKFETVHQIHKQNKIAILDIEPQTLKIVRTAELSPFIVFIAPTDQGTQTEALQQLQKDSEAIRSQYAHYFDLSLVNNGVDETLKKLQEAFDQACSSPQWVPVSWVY
UniProt Q7Z3U7: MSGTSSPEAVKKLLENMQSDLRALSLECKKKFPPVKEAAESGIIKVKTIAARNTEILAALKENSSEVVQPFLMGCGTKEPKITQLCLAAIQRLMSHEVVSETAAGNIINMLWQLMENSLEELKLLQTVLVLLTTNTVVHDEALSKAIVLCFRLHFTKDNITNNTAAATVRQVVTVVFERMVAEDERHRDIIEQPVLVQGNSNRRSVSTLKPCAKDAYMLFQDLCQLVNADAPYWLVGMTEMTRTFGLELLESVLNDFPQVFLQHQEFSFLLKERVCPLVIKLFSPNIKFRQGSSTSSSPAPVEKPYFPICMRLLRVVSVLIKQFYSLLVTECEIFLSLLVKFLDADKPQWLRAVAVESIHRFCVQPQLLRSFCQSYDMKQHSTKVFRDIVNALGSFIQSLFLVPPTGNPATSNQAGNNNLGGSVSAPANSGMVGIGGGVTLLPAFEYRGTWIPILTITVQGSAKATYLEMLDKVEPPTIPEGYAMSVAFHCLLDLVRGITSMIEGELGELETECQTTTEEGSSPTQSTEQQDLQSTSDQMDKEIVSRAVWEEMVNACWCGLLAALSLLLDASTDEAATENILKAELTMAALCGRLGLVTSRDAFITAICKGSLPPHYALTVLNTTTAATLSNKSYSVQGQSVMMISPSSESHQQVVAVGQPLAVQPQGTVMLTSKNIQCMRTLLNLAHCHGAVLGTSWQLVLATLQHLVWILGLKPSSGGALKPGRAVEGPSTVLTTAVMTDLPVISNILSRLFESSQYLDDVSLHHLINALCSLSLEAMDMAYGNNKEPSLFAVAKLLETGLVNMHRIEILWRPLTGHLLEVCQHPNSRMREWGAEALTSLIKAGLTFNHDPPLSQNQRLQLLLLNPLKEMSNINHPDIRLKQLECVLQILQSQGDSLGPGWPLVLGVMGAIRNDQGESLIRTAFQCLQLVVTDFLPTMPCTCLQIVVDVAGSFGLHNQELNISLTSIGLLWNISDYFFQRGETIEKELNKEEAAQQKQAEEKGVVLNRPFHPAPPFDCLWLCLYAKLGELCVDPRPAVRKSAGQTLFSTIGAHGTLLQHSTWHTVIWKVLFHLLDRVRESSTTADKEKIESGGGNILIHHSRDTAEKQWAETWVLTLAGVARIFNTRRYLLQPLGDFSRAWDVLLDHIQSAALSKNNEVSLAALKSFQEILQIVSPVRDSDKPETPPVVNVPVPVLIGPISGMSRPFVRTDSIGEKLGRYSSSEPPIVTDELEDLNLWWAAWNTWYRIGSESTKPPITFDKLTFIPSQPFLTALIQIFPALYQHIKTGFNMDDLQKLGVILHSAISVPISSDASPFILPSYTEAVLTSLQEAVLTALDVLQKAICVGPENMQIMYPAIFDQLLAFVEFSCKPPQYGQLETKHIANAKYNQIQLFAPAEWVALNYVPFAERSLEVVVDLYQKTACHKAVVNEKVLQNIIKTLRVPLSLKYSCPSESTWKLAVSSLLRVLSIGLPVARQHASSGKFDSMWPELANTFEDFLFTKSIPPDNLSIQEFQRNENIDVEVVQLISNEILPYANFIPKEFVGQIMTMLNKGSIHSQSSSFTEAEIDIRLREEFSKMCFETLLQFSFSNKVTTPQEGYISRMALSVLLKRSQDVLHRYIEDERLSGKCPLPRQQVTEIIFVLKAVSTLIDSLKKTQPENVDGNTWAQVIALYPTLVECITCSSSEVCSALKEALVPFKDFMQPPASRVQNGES
UniProt O95563: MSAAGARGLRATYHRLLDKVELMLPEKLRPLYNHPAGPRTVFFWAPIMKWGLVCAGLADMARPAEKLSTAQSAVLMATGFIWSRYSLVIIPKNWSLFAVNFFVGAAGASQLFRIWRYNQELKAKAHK
UniProt Q15014, whole entry, looked up: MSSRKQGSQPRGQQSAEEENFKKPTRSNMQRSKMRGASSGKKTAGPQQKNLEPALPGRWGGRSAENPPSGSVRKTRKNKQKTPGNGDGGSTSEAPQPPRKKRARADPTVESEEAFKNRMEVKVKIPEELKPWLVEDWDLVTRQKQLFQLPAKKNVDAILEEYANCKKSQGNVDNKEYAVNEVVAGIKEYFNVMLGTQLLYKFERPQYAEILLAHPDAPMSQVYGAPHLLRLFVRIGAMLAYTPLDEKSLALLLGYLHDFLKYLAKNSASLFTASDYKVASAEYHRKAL
UniProt Q9UQ53: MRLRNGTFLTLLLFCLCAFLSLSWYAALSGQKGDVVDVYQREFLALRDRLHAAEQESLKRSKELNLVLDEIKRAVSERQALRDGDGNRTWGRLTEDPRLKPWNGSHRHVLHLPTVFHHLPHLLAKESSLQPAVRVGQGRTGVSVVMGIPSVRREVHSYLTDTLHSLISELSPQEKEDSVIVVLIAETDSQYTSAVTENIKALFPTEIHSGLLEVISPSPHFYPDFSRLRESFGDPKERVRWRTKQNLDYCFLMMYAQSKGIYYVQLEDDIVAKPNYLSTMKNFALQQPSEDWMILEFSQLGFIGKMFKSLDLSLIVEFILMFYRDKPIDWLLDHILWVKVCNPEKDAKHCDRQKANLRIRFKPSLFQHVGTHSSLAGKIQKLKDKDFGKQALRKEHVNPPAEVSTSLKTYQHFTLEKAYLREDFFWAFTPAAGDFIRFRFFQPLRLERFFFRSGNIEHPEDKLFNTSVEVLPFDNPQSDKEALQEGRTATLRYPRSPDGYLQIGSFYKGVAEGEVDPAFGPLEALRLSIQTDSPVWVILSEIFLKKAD
UniProt Q567V2: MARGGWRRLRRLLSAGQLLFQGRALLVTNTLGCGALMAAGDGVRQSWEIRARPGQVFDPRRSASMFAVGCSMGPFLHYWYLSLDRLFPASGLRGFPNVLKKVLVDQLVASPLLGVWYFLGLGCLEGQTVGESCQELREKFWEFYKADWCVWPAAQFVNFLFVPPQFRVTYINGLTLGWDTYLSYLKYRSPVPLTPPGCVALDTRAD
UniProt P51948: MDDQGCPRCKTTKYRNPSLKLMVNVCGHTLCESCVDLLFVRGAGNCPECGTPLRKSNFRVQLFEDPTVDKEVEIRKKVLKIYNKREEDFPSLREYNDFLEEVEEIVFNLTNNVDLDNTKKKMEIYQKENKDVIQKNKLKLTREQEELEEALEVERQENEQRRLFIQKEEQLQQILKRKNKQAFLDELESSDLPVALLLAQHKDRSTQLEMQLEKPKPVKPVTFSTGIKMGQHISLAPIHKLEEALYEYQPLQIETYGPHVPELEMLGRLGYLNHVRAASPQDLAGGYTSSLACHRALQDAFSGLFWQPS
UniProt Q14149: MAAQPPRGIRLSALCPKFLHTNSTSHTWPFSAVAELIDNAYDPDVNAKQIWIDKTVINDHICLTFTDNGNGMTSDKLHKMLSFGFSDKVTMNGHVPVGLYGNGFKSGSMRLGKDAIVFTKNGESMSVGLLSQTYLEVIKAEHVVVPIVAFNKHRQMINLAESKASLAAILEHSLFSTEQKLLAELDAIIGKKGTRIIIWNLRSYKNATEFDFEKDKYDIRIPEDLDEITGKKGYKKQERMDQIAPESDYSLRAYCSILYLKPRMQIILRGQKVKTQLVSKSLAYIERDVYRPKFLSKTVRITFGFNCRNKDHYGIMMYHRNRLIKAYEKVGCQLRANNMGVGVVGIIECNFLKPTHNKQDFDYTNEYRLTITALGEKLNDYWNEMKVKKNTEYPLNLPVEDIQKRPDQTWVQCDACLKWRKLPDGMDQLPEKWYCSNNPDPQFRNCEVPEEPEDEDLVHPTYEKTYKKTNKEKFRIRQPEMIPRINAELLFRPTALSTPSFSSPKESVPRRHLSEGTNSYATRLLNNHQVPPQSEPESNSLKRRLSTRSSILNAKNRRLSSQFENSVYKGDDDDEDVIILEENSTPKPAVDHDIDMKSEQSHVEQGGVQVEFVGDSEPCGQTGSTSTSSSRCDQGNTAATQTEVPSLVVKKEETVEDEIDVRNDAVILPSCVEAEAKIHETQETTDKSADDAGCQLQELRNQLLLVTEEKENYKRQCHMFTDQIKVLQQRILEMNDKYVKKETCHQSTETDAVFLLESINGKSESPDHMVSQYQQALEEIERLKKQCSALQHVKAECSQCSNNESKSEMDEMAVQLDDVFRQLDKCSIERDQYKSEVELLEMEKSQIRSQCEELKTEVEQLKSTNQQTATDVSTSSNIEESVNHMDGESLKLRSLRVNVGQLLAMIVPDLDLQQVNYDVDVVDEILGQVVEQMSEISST
UniProt P34949: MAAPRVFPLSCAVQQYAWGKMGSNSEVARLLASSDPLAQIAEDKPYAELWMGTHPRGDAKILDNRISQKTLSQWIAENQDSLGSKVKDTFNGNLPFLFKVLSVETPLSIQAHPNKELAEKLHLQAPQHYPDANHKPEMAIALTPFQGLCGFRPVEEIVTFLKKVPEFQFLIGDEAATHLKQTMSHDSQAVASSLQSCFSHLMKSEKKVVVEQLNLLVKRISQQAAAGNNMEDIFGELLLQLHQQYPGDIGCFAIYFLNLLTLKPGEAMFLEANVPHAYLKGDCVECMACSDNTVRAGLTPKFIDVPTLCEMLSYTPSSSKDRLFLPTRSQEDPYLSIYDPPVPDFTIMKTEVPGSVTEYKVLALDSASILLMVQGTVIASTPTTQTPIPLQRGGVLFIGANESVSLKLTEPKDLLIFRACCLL

Tests used:
Test in all cases: log2 fold change, soluble protein after heating vs DMSO (PISA); higher = thermal stabilisation; K562 lysate, 10 uM; active = over 0.2 and 3.5 SD of the protein, either way, in both replicates (recomputed)
alvocidib = compound: CN1CC[C@H](c2c(O)cc(O)c3c(=O)cc(-c4ccccc4Cl)oc23)[C@H](O)C1 [alvocidib]
In short: (§1)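 Pellets of K562 cells were dounce-homogenised in PBS pH 7.4 with 1 mM MgCl2, and the crude extract was held at 1 mg/mL protein for a 30 min treatment with 10 μM compound. Aliquots were heated for 3 min over 48°C-58°C and pooled before NP-40 was added to 0.5% at 4°C. The supernatant from 21,000xg for 90 min was quantified by TMTpro 16plex LC-MS/MS with channel sums equalised. Values are reported from duplicates as log-two fold change in thermal stability relative to solvent controls.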

Tubastatin A = compound: CN1CCc2c(c3ccccc3n2Cc2ccc(C(=O)NO)cc2)C1 [Tubastatin A]
In short: as §1

[1] = compound: CNC(=O)C1=CC=CC=C1NC2=NC(=NC=C2Cl)NC3=C(C=C(C=C3)N4CCOCC4)OC
In short: as §1

defactinib = compound: CNC(=O)c1ccc(Nc2ncc(C(F)(F)F)c(NCc3nccnc3N(C)S(C)(=O)=O)n2)cc1 [defactinib]
In short: as §1

[2] = compound: CNc1nc(-c2ccc3c(N)n[nH]c3c2)cc(N2C[C@@H](C(=O)NC3CCCCC3)CC[C@H]2C)n1
In short: as §1

encorafenib = compound: COC(=O)N[C@@H](C)CNc1nccc(-c2cn(C(C)C)nc2-c2cc(Cl)cc(NS(C)(=O)=O)c2F)n1 [encorafenib]
In short: as §1

[3] = compound: COC(=O)[C@H](CCSC)NC(=O)C1=C(C=C(C=C1)NC[C@H](CS)N)C2=CC=CC=C2
In short: as §1

alisertib = compound: COc1cc(Nc2ncc3c(n2)-c2ccc(Cl)cc2C(c2c(F)cccc2OC)=NC3)ccc1C(=O)O [alisertib]
In short: as §1

[4] = compound: COc1cc2nc(-c3cc(F)ccc3O)nc(N[C@@H]3CNC[C@H]3C(C)(C)O)c2cc1OC
In short: as §1

gefitinib = compound: COc1cc2ncnc(Nc3ccc(F)c(Cl)c3)c2cc1OCCCN1CCOCC1 [gefitinib]
In short: as §1

lapatinib = compound: CS(=O)(=O)CCNCc1ccc(-c2ccc3ncnc(Nc4ccc(OCc5cccc(F)c5)c(Cl)c4)c3c2)o1 [lapatinib]
In short: as §1

pictilisib = compound: CS(=O)(=O)N1CCN(Cc2cc3nc(-c4cccc5[nH]ncc45)nc(N4CCOCC4)c3s2)CC1 [pictilisib]
In short: as §1

crizotinib = compound: C[C@@H](Oc1cc(-c2cnn(C3CCNCC3)c2)cnc1N)c1c(Cl)ccc(F)c1Cl [crizotinib]
In short: as §1

[5] = compound: C[C@H](C1=CC=C(C=C1)C(=O)NC2=C3C=CNC3=NC=C2)N
In short: as §1

duvelisib = compound: C[C@H](Nc1ncnc2nc[nH]c12)c1cc2cccc(Cl)c2c(=O)n1-c1ccccc1 [duvelisib]
In short: as §1

gandotinib = compound: Cc1cc(Nc2cc(CN3CCOCC3)c3nc(C)c(Cc4ccc(Cl)cc4F)n3n2)n[nH]1 [gandotinib]
In short: as §1

tozasertib = compound: Cc1cc(Nc2cc(N3CCN(C)CC3)nc(Sc3ccc(NC(=O)C4CC4)cc3)n2)n[nH]1 [tozasertib]
In short: as §1

doramapimod = compound: Cc1ccc(-n2nc(C(C)(C)C)cc2NC(=O)Nc2ccc(OCCN3CCOCC3)c3ccccc23)cc1 [doramapimod]
In short: as §1

bafetinib = compound: Cc1ccc(NC(=O)c2ccc(CN3CC[C@H](N(C)C)C3)c(C(F)(F)F)c2)cc1Nc1nccc(-c2cncnc2)n1 [bafetinib]
In short: as §1

[6] = compound: Cc1cccc(CC(=O)N2CCc3c2ccc(-c2cn(C)c4ncnc(N)c24)c3F)n1
In short: as §1

Measured: log2 fold change

MGST3 (UniProt O14880)
inactive: alvocidib 0.071 | Tubastatin A 0.043 | [1] 0.054 | defactinib 0 | [2] 0.029 | encorafenib -0.04 | [3] 0.052 | alisertib 0.026 | [4] -0.005 | gefitinib -0.038 | lapatinib 0.01 | pictilisib -0.017 | crizotinib 0.004 | [5] 0.23 | duvelisib -0.02 | gandotinib -0.078 | tozasertib -0.035 | doramapimod -0.025 | bafetinib -0.048 | [6] -0.087

MRPL13 (UniProt Q9BYD1)
inactive: alvocidib -0.005 | Tubastatin A -0.014 | [1] -0.031 | defactinib -0.01 | [2] 0.012 | encorafenib 0.029 | [3] 0.081 | alisertib -0.004 | [4] 0.085 | gefitinib 0.025 | lapatinib 0.046 | pictilisib -0.018 | crizotinib -0.064 | [5] -0.051 | duvelisib -0.01 | gandotinib -0.022 | tozasertib 0.033 | doramapimod 0.049 | bafetinib -0.066 | [6] 0.041

MOB1B isoform 2 (UniProt Q7L9L4)
inactive: alvocidib -0.053 | Tubastatin A 0.046 | [1] 0.02 | defactinib -0.035 | [2] 0.026 | encorafenib -0.014 | [3] -0.019 | alisertib -0.061 | [4] 0.027 | gefitinib 0.027 | lapatinib -0.024 | pictilisib 0.066 | crizotinib 0.021 | [5] -0.101 | duvelisib 0.008 | gandotinib 0.085 | tozasertib 0.014 | doramapimod 0.006 | bafetinib -0.027 | [6] 0.057

MON1A (UniProt Q86VX9)
inactive: alvocidib -0.09 | Tubastatin A -0.058 | [1] -0.021 | defactinib 0.015 | [2] -0.038 | encorafenib 0.012 | [3] -0.344 | alisertib -0.022 | [4] 0.082 | gefitinib -0.035 | lapatinib 0.005 | pictilisib -0.103 | crizotinib 0.028 | [5] -0.168 | duvelisib -0.023 | gandotinib 0.1 | tozasertib -0.073 | doramapimod -0.028 | bafetinib 0.01 | [6] 0.107

MIEN1 (UniProt Q9BRT3)
inactive: alvocidib 0.072 | Tubastatin A 0.073 | [1] 0.03 | defactinib 0.028 | [2] 0.035 | encorafenib -0.014 | [3] -0.016 | alisertib 0.005 | [4] -0.08 | gefitinib -0.039 | lapatinib 0.014 | pictilisib 0.018 | crizotinib 0.109 | [5] 0.066 | duvelisib -0.025 | gandotinib -0.038 | tozasertib 0.041 | doramapimod -0.065 | bafetinib -0.023 | [6] -0.012

MOB4 (UniProt Q9Y3A3)
inactive: alvocidib -0.027 | Tubastatin A 0.022 | [1] -0.013 | defactinib 0.037 | [2] 0.031 | encorafenib 0.014 | [3] -0.096 | alisertib -0.018 | [4] -0.048 | gefitinib -0.024 | lapatinib 0.009 | pictilisib -0.004 | crizotinib -0.025 | [5] 0.001 | duvelisib -0.027 | gandotinib 0.11 | tozasertib -0.016 | doramapimod 0.051 | bafetinib -0.036 | [6] 0.019

MPP1 (UniProt Q00013)
inactive: alvocidib -0.01 | Tubastatin A -0.01 | [1] -0.007 | defactinib -0.002 | [2] 0.01 | encorafenib -0.015 | [3] 0.011 | alisertib -0.008 | [4] -0.007 | gefitinib 0 | lapatinib 0.006 | pictilisib 0.016 | crizotinib 0.001 | [5] -0.006 | duvelisib 0.012 | gandotinib -0.008 | tozasertib 0.017 | doramapimod 0.006 | bafetinib -0.015 | [6] 0.001

MON2 isoform 5 (UniProt Q7Z3U7)
inactive: alvocidib 0.003 | Tubastatin A -0.149 | [1] 0.018 | defactinib 0.023 | [2] -0.014 | encorafenib 0.034 | [3] -0.035 | alisertib -0.004 | [4] 0 | gefitinib 0.005 | lapatinib -0.034 | pictilisib -0.027 | crizotinib -0.077 | [5] -0.042 | duvelisib 0.003 | gandotinib -0.031 | tozasertib 0.001 | doramapimod -0.011 | bafetinib -0.035 | [6] 0.12

MPC2 (UniProt O95563)
inactive: alvocidib -0.093 | Tubastatin A -0.096 | [1] -0.02 | defactinib -0.039 | [2] 0.059 | encorafenib -0.019 | [3] 0.016 | alisertib 0.023 | [4] -0.011 | gefitinib 0.036 | lapatinib -0.028 | pictilisib -0.012 | crizotinib -0.018 | [5] -0.145 | duvelisib -0.007 | gandotinib 0.08 | tozasertib 0.004 | doramapimod -0.017 | bafetinib -0.038 | [6] 0.094

MORF4L2 (UniProt Q15014)
inactive: alvocidib -0.029 | Tubastatin A -0.007 | [1] 0.003 | defactinib -0.004 | [2] 0.01 | encorafenib -0.015 | [3] -0.086 | alisertib 0.044 | [4] -0.01 | gefitinib 0.039 | lapatinib 0.017 | pictilisib -0.014 | crizotinib 0.011 | [5] -0.029 | duvelisib 0.027 | gandotinib 0.002 | tozasertib 0.025 | doramapimod -0.051 | bafetinib 0.038 | [6] 0.038

MGAT4B isoform 3 (UniProt Q9UQ53)
inactive: alvocidib 0.007 | Tubastatin A 0.092 | [1] -0.004 | defactinib 0.088 | [2] 0.024 | encorafenib -0.001 | [3] -0.21 | alisertib 0.022 | [4] 0.027 | gefitinib 0.069 | lapatinib -0.046 | pictilisib -0.115 | crizotinib 0.068 | [5] -0.083 | duvelisib -0.024 | gandotinib 0.019 | tozasertib 0.041 | doramapimod -0.027 | bafetinib -0.107 | [6] 0.063

MPV17L2 (UniProt Q567V2)
inactive: alvocidib 0.072 | Tubastatin A 0.1 | [1] 0.049 | defactinib -0.007 | [2] -0.005 | encorafenib -0.063 | [3] -0.071 | alisertib -0.003 | [4] -0.001 | gefitinib -0.083 | lapatinib -0.061 | pictilisib 0.02 | crizotinib 0.001 | [5] -0.061 | duvelisib -0.059 | gandotinib 0.057 | tozasertib -0.165 | doramapimod -0.074 | bafetinib -0.067 | [6] 0.02

MKI67 (UniProt P46013)
inactive: alvocidib -0.041 | Tubastatin A -0.022 | [1] 0.027 | defactinib -0.003 | [2] 0.028 | encorafenib 0.033 | [3] -0.013 | alisertib 0.007 | [4] 0.006 | gefitinib -0.002 | lapatinib -0.007 | pictilisib 0.059 | crizotinib -0.002 | [5] -0.015 | duvelisib 0.013 | gandotinib 0.025 | tozasertib 0.004 | doramapimod 0.001 | bafetinib -0.009 | [6] 0.021

Two records drawn at random from those above:
MKI67 (UniProt P46013)
inactive: alvocidib -0.041 | Tubastatin A -0.022 | [1] 0.027 | defactinib -0.003 | [2] 0.028 | encorafenib 0.033 | [3] -0.013 | alisertib 0.007 | [4] 0.006 | gefitinib -0.002 | lapatinib -0.007 | pictilisib 0.059 | crizotinib -0.002 | [5] -0.015 | duvelisib 0.013 | gandotinib 0.025 | tozasertib 0.004 | doramapimod 0.001 | bafetinib -0.009 | [6] 0.021

MPC2 (UniProt O95563)
inactive: alvocidib -0.093 | Tubastatin A -0.096 | [1] -0.02 | defactinib -0.039 | [2] 0.059 | encorafenib -0.019 | [3] 0.016 | alisertib 0.023 | [4] -0.011 | gefitinib 0.036 | lapatinib -0.028 | pictilisib -0.012 | crizotinib -0.018 | [5] -0.145 | duvelisib -0.007 | gandotinib 0.08 | tozasertib 0.004 | doramapimod -0.017 | bafetinib -0.038 | [6] 0.094

Later entries

MNAT1 (UniProt P51948)
inactive: alvocidib -0.021 | Tubastatin A 0.005 | [1] -0.006 | defactinib -0.105 | [2] 0.073 | encorafenib 0.037 | [3] -0.041 | alisertib 0.024 | [4] -0.005 | gefitinib -0.016 | lapatinib 0.011 | pictilisib -0.028 | crizotinib -0.043 | [5] -0.023 | duvelisib -0.001 | gandotinib 0.042 | tozasertib -0.019 | doramapimod 0.026 | bafetinib -0.032 | [6] 0.034

MORC3 (UniProt Q14149)
inactive: alvocidib -0.015 | Tubastatin A -0.098 | [1] 0.017 | defactinib 0.018 | [2] -0.028 | encorafenib 0.007 | [3] 0.038 | alisertib -0.003 | [4] 0.021 | gefitinib -0.01 | lapatinib 0.021 | pictilisib -0.037 | crizotinib -0.02 | [5] 0.005 | duvelisib -0.001 | gandotinib -0.053 | tozasertib 0.001 | doramapimod 0.024 | bafetinib -0.001 | [6] 0.014

MPI (UniProt P34949)
active: [3] 0.477
inactive: alvocidib 0.051 | Tubastatin A 0.024 | [1] -0.02 | defactinib -0.007 | [2] 0.035 | encorafenib -0.01 | alisertib 0.018 | [4] 0.01 | gefitinib -0.014 | lapatinib 0.02 | pictilisib -0.017 | crizotinib -0.029 | [5] 0.174 | duvelisib 0.007 | gandotinib -0.055 | tozasertib -0.043 | doramapimod 0.032 | bafetinib 0.013 | [6] -0.014
